Assay: Laundry test with SPME GC/MS headspace analysis of dried polyester tracers after four wash and dry cycles
Settings: for % increase Ex 1 vs Ex C: headspace of perfume ingredient on polyester, with PVP/PVI vs without; for Headspace above dried polyester tracers, Ex A (nil-PVP/PVI): laundered with comparative detergent Ex A (no PVP/PVI copolymer, 1.25 wt % perfume); for Headspace above dried polyester tracers, Ex A (nil-PVP/PVI) / Headspace above dried polyester tracers, Ex 1 (PVP/PVI): 4 wash/dry cycles, 40° C., SPME at 65° C.; for Headspace above dried polyester tracers, Ex 1 (PVP/PVI): laundered with detergent Ex 1 (0.1 wt % PVP/PVI copolymer, 1.25 wt % perfume)

3-(3,3-dimethyl-2,3-dihydro-1H-inden-5-yl)propanal mixt. wth 3-(1,1-dimethyl-2,3-dihydro-1H-inden-5-yl)propanal [Neo Hivernal]
% increase Ex 1 vs Ex C: 333% | Headspace above dried polyester tracers, Ex A (nil-PVP/PVI): 0.009 nmol/L | Headspace above dried polyester tracers, Ex 1 (PVP/PVI): 0.030 nmol/L

C=CCOC(=O)COCCC(C)C [Allyl amyl glycolate, allyl 2-(isopentyloxy)acetate]
% increase Ex 1 vs Ex C: 806% | Headspace above dried polyester tracers, Ex A (nil-PVP/PVI): 0.267 nmol/L | Headspace above dried polyester tracers, Ex 1 (PVP/PVI): 2.153 nmol/L

CC1=CCC2CC1C2(C)C (stereo not drawn) [Alpha pinene, 2,6,6-trimethylbicyclo(3.1.1)hept-2-ene]
% increase Ex 1 vs Ex C: 943% | Headspace above dried polyester tracers, Ex A (nil-PVP/PVI): 0.023 nmol/L | Headspace above dried polyester tracers, Ex 1 (PVP/PVI): 0.217 nmol/L

COc1ccc(C=O)cc1 [Anisic aldehyde, 4-methoxybenzaldehyde]
% increase Ex 1 vs Ex C: 372% | Headspace above dried polyester tracers, Ex A (nil-PVP/PVI): 0.232 nmol/L | Headspace above dried polyester tracers, Ex 1 (PVP/PVI): 0.862 nmol/L

CC(=O)OCc1ccccc1 [Benzyl acetate, benzyl acetate]
% increase Ex 1 vs Ex C: 424% | Headspace above dried polyester tracers, Ex A (nil-PVP/PVI): 0.592 nmol/L | Headspace above dried polyester tracers, Ex 1 (PVP/PVI): 2.510 nmol/L

COc1ccc2ccccc2c1 [Beta napthol methyl ether, 2-methoxynaphthalene]
% increase Ex 1 vs Ex C: 421% | Headspace above dried polyester tracers, Ex A (nil-PVP/PVI): 2.177 nmol/L | Headspace above dried polyester tracers, Ex 1 (PVP/PVI): 9.173 nmol/L

CC(C)=CCCC(C)CCO (stereo not shown) [Citronellol, 3,7-dimethyloct-6-en-1-ol]
% increase Ex 1 vs Ex C: 1124% | Headspace above dried polyester tracers, Ex A (nil-PVP/PVI): 0.104 nmol/L | Headspace above dried polyester tracers, Ex 1 (PVP/PVI): 1.169 nmol/L

CC(C)=CCCC(C)CC#N (stereo not shown) [Citronellyl nitrile, 3,7-dimethyloct-6-enenitrile]
% increase Ex 1 vs Ex C: 845% | Headspace above dried polyester tracers, Ex A (nil-PVP/PVI): 0.403 nmol/L | Headspace above dried polyester tracers, Ex 1 (PVP/PVI): 3.406 nmol/L

CC1/C=C/CCCCCCCCCCC(=O)C1 (stereo not shown) [Delta muscenone, (E)-3-methylcyclopentadec-4-en-1-one]
% increase Ex 1 vs Ex C: 666% | Headspace above dried polyester tracers, Ex A (nil-PVP/PVI): 0.147 nmol/L | Headspace above dried polyester tracers, Ex 1 (PVP/PVI): 0.979 nmol/L

CCOC(=O)C1OC1(C)c1ccccc1 (stereo not shown) [Ethyl methyl phenyl glycidate, ethyl 3-methyl-3-phenyloxirane-2-carboxylate]
Headspace above dried polyester tracers, Ex A (nil-PVP/PVI): 0.000 nmol/L | Headspace above dried polyester tracers, Ex 1 (PVP/PVI): 0.061 nmol/L

CCOC(=O)C1=C(C)C=CCC1(C)C [Ethyl safranate, ethyl 2,6,6-trimethylcyclohexa-1,3-diene-1-carboxylate]
% increase Ex 1 vs Ex C: 2373% | Headspace above dried polyester tracers, Ex A (nil-PVP/PVI): 0.030 nmol/L | Headspace above dried polyester tracers, Ex 1 (PVP/PVI): 0.712 nmol/L

O=C1CCCCCCCCCCCCCCO1 [Exaltolide total, oxacyclohexadecan-2-one]
% increase Ex 1 vs Ex C: 547% | Headspace above dried polyester tracers, Ex A (nil-PVP/PVI): 0.231 nmol/L | Headspace above dried polyester tracers, Ex 1 (PVP/PVI): 1.264 nmol/L

CC(C)c1cccc(C(C)CC=O)c1 (stereo not shown) [Florhydral, 3-(3-isopropylphenyl)butanal]
% increase Ex 1 vs Ex C: 713% | Headspace above dried polyester tracers, Ex A (nil-PVP/PVI): 0.054 nmol/L | Headspace above dried polyester tracers, Ex 1 (PVP/PVI): 0.385 nmol/L

CCC(=O)OCC(C)(C)OC(C)C1CCCC(C)(C)C1 (stereo not shown) [Helvetolide, 2-(1-(3,3-dimethylcyclohexyl)ethoxy)-2-methylpropyl propionate]
% increase Ex 1 vs Ex C: 860% | Headspace above dried polyester tracers, Ex A (nil-PVP/PVI): 0.020 nmol/L | Headspace above dried polyester tracers, Ex 1 (PVP/PVI): 0.172 nmol/L

CC(CC=O)CCCC(C)(C)O (stereo not shown) [Hydroxycitronellal, 7-hydroxy-3,7-dimethyloctanal]
Headspace above dried polyester tracers, Ex A (nil-PVP/PVI): 0.000 nmol/L | Headspace above dried polyester tracers, Ex 1 (PVP/PVI): 0.000 nmol/L

CC(=O)/C=C/C1=C(C)CCCC1(C)C [Ionone beta, (E)-4-(2,6,6-trimethylcyclohex-1-en-1-yl)but-3-en-2-one]
% increase Ex 1 vs Ex C: 3960% | Headspace above dried polyester tracers, Ex A (nil-PVP/PVI): 0.015 nmol/L | Headspace above dried polyester tracers, Ex 1 (PVP/PVI): 0.594 nmol/L

CCCC(=O)OCCC(C)C [Isoamyl butyrate, isopentyl butyrate]
% increase Ex 1 vs Ex C: 682% | Headspace above dried polyester tracers, Ex A (nil-PVP/PVI): 0.585 nmol/L | Headspace above dried polyester tracers, Ex 1 (PVP/PVI): 3.989 nmol/L

C=C(C)C1CC=C(C)C(=O)C1 (stereo not shown) [Laevo carvone, 2-methyl-5-(prop-1-en-2-yl)cyclohex-2-en-1-one]
% increase Ex 1 vs Ex C: 813% | Headspace above dried polyester tracers, Ex A (nil-PVP/PVI): 0.640 nmol/L | Headspace above dried polyester tracers, Ex 1 (PVP/PVI): 5.201 nmol/L

CC(C=O)Cc1ccc(C(C)(C)C)cc1 (stereo not shown) [Lilial, 3-(4-(tert-butyl)phenyl)-2-methylpropanal]
% increase Ex 1 vs Ex C: 1462% | Headspace above dried polyester tracers, Ex A (nil-PVP/PVI): 0.065 nmol/L | Headspace above dried polyester tracers, Ex 1 (PVP/PVI): 0.950 nmol/L

C=CC(C)(O)CCC=C(C)C (stereo not shown) [Linalool, 3,7-dimethylocta-1,6-dien-3-ol]
% increase Ex 1 vs Ex C: 1067% | Headspace above dried polyester tracers, Ex A (nil-PVP/PVI): 0.064 nmol/L | Headspace above dried polyester tracers, Ex 1 (PVP/PVI): 0.683 nmol/L

C=CC(C)(CCC=C(C)C)OC(=O)CC (stereo not shown) [Linalyl propionate, 3,7-dimethylocta-1,6-dien-3-yl propionate]
% increase Ex 1 vs Ex C: 3390% | Headspace above dried polyester tracers, Ex A (nil-PVP/PVI): 0.031 nmol/L | Headspace above dried polyester tracers, Ex 1 (PVP/PVI): 1.051 nmol/L

CC(=O)c1ccc2ccccc2c1 [Methyl Beta-napthyl ketone, 1-(naphthalen-2-yl)ethan-1-one]
% increase Ex 1 vs Ex C: 425% | Headspace above dried polyester tracers, Ex A (nil-PVP/PVI): 0.212 nmol/L | Headspace above dried polyester tracers, Ex 1 (PVP/PVI): 0.901 nmol/L

COC(=O)c1ccccc1O [Methyl salicylate USP, methyl 2-hydroxybenzoate]
% increase Ex 1 vs Ex C: 455% | Headspace above dried polyester tracers, Ex A (nil-PVP/PVI): 2.813 nmol/L | Headspace above dried polyester tracers, Ex 1 (PVP/PVI): 12.788 nmol/L

CCCCCCCC=O [Octyl Aldehyde, octanal]
% increase Ex 1 vs Ex C: 206% | Headspace above dried polyester tracers, Ex A (nil-PVP/PVI): 1.156 nmol/L | Headspace above dried polyester tracers, Ex 1 (PVP/PVI): 2.381 nmol/L

COc1ccc(C)cc1 [Para cresyl methyl ether, 1-methoxy-4-methylbenzene]
% increase Ex 1 vs Ex C: 356% | Headspace above dried polyester tracers, Ex A (nil-PVP/PVI): 7.850 nmol/L | Headspace above dried polyester tracers, Ex 1 (PVP/PVI): 27.974 nmol/L

CC(C)(O)CCc1ccccc1 [Phenyl ethyl dimethyl carbinol, 2-methyl-4-phenylbutan-2-ol]
% increase Ex 1 vs Ex C: 1262% | Headspace above dried polyester tracers, Ex A (nil-PVP/PVI): 0.013 nmol/L | Headspace above dried polyester tracers, Ex 1 (PVP/PVI): 0.164 nmol/L

Reference: US20220411718A1, “DETERGENT COMPOSITIONS” (The Procter & Gamble Company, priority 2021, published 2022)
